Reference: publication doi:10.1101/2025.07.04.663186
No constants are given. Whether binding was seen depends on the method and setting. Binding seen in cells or lysates may run through a third protein. A yes stands for co-enrichment or nearness to the bait. Other partners may have been found. Tags and fused reporters may be left off the sequences shown.

Amino acid sequences for entries named in this document (tags omitted).
UniProt O15117: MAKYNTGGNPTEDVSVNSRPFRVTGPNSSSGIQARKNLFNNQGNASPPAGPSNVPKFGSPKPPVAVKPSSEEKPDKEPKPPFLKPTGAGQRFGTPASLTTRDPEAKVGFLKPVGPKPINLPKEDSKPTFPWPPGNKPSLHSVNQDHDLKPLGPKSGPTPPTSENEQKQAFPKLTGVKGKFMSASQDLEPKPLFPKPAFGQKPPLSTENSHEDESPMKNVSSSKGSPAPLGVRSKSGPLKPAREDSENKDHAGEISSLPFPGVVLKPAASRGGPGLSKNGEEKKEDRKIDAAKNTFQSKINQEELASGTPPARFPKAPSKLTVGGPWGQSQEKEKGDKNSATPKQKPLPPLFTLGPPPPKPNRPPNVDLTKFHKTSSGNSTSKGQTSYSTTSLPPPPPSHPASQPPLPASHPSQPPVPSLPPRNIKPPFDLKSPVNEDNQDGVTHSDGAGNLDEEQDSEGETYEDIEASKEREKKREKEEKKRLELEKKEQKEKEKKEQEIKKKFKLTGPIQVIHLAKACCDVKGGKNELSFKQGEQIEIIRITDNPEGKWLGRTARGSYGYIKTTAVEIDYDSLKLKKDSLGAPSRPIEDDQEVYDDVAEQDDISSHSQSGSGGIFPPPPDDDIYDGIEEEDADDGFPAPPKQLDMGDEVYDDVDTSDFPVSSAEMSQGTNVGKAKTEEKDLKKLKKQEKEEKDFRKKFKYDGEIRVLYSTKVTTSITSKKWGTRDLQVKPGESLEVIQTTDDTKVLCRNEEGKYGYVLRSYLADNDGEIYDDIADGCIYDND
UniProt P42768: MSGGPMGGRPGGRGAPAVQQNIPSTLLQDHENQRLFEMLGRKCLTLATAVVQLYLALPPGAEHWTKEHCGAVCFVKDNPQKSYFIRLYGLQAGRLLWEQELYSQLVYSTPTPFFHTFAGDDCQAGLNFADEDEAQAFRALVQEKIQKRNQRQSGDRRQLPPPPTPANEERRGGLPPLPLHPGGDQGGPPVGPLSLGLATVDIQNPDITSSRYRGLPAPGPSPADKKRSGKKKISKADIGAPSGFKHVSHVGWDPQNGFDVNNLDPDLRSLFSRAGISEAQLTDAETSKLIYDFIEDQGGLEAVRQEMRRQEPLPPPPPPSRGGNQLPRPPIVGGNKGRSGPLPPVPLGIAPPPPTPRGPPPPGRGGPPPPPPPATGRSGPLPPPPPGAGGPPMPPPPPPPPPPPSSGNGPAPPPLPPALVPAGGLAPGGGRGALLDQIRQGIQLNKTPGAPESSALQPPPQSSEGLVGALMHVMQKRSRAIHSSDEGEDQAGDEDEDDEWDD
UniProt P46939: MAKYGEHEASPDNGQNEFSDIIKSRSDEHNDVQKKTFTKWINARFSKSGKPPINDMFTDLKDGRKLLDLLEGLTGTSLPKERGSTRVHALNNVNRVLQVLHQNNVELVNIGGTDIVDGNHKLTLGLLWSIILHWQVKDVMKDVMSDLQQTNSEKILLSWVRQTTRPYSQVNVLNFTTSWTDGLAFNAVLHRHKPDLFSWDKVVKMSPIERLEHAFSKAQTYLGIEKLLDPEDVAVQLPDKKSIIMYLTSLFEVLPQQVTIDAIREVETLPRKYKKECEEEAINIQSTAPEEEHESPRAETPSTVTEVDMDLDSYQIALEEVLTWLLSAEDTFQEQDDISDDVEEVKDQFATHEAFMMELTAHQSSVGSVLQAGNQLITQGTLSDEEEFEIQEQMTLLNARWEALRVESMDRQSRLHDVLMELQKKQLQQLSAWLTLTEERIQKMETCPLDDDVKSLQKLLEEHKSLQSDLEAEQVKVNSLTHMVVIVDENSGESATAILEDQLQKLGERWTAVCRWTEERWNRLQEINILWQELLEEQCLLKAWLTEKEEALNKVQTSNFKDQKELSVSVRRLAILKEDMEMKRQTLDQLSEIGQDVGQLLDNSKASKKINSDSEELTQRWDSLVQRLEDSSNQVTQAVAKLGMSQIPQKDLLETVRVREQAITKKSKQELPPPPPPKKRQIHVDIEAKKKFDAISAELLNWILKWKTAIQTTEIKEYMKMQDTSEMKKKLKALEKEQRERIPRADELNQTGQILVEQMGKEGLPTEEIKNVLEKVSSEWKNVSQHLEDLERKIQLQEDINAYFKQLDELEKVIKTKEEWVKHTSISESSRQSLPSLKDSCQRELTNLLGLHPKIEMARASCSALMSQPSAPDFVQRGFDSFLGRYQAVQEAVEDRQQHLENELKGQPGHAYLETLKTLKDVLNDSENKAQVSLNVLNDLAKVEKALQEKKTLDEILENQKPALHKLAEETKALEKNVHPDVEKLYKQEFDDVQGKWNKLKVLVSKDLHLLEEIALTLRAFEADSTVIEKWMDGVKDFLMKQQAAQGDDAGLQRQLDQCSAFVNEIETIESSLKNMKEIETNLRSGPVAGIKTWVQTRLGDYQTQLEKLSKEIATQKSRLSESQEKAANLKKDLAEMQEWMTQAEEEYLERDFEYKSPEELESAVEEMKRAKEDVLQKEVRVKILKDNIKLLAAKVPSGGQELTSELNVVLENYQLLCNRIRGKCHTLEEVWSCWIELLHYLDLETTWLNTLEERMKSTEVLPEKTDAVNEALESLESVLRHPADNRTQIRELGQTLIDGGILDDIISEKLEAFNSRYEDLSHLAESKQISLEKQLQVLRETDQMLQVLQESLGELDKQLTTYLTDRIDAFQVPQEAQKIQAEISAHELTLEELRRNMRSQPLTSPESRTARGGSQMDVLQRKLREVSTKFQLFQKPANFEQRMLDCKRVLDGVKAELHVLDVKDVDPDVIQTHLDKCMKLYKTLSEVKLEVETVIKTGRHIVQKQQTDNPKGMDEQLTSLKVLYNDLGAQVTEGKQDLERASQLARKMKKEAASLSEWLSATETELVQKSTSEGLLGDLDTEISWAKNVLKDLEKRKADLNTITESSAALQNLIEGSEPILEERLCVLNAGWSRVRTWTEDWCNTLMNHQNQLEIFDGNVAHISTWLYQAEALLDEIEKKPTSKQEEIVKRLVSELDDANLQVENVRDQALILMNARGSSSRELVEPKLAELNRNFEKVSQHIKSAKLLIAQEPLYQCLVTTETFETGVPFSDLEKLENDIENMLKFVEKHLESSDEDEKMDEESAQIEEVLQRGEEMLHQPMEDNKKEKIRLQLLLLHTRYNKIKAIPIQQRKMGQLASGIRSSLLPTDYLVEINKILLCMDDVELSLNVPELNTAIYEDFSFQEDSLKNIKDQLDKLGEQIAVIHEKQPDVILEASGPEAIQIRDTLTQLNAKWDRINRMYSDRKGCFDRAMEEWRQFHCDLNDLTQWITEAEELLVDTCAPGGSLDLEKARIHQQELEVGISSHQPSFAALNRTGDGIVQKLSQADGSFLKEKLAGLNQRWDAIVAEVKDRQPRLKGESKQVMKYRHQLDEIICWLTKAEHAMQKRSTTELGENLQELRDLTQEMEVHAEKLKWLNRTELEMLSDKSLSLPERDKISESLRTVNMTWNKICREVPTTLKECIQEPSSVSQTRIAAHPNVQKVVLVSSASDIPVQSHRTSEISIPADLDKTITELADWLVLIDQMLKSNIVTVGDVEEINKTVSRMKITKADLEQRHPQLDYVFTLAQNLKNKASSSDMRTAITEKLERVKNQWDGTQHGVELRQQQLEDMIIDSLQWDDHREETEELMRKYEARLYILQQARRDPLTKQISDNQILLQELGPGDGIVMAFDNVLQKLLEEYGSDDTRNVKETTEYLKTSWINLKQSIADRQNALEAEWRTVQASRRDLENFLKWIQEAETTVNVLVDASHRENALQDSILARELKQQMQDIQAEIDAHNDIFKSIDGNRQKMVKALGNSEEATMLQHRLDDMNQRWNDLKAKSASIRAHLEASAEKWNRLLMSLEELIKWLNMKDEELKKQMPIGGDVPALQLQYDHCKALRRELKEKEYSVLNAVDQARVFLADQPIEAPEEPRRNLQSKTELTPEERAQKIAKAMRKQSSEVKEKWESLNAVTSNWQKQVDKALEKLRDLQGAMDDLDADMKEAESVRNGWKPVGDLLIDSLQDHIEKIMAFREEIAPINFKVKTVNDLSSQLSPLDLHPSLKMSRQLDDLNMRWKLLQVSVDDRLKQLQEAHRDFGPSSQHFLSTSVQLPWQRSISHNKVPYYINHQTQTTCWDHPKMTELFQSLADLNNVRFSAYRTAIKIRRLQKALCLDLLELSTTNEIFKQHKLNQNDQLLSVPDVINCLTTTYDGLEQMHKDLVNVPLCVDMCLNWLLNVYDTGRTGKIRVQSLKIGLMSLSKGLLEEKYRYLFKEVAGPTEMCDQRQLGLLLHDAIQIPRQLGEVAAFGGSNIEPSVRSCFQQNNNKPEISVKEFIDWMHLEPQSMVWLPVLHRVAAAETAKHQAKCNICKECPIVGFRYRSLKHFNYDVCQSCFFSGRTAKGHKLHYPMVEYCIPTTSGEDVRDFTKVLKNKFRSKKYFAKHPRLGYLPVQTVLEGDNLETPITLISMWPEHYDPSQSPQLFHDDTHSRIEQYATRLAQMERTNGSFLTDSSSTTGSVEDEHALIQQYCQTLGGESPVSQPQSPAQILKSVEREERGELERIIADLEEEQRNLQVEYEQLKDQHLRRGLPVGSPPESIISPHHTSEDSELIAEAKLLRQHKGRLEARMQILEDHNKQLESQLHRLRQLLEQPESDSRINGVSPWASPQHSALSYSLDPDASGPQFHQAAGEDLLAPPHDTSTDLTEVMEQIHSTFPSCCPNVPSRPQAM

T1: myc-BirA*-MYO1F tail (aa 692-1098) (human) (UniProt O00160)
T1 sequence: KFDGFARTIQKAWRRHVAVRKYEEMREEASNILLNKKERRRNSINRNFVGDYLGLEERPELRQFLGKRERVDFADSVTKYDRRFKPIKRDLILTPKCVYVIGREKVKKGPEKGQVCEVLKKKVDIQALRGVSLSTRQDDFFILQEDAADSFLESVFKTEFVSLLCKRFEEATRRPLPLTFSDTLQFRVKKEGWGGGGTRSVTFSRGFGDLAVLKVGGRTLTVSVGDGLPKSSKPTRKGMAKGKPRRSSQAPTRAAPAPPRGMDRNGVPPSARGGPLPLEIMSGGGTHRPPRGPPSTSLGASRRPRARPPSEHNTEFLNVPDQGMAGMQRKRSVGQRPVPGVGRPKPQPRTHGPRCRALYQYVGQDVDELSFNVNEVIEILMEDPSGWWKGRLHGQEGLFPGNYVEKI

B1: ITGA6 (Integrin alpha-6) (protein, UniProt P23229 24-1130)
chain: FNLDTREDNVIRKYGDPGSLFGFSLAMHWQLQPEDKRLLLVGAPRAEALPLQRANRTGGLYSCDITARGPCTRIEFDNDADPTSESKEDQWMGVTVQSQGPGGKVVTCAHRYEKRQHVNTKQESRDIFGRCYVLSQNLRIEDDMDGGDWSFCDGRLRGHEKFGSCQQGVAATFTKDFHYIVFGAPGTYNWKGIVRVEQKNNTFFDMNIFEDGPYEVGGETEHDESLVPVPANSYLGLLFLTSVSYTDPDQFVYKTRPPREQPDTFPDVMMNSYLGFSLDSGKGIVSKDEITFVSGAPRANHSGAVVLLKRDMKSAHLLPEHIFDGEGLASSFGYDVAVVDLNKDGWQDIVIGAPQYFDRDGEVGGAVYVYMNQQGRWNNVKPIRLNGTKDSMFGIAVKNIGDINQDGYPDIAVGAPYDDLGKVFIYHGSANGINTKPTQVLKGISPYFGYSIAGNMDLDRNSYPDVAVGSLSDSVTIFRSRPVINIQKTITVTPNRIDLRQKTACGAPSGICLQVKSCFEYTANPAGYNPSISIVGTLEAEKERRKSGLSSRVQFRNQGSEPKYTQELTLKRQKQKVCMEETLWLQDNIRDKLRPIPITASVEIQEPSSRRRVNSLPEVLPILNSDEPKTAHIDVHFLKEGCGDDNVCNSNLKLEYKFCTREGNQDKFSYLPIQKGVPELVLKDQKDIALEITVTNSPSNPRNPTKDGDDAHEAKLIATFPDTLTYSAYRELRAFPEKQLSCVANQNGSQADCELGNPFKRNSNVTFYLVLSTTEVTFDTPDLDINLKLETTSNQDNLAPITAKAKVVIELLLSVSGVAKPSQVYFGGTVVGEQAMKSEDEVGSLIEYEFRVINLGKPLTNLGTATLNIQWPKEISNGKWLLYLVKVESKGLEKVTCEPQKEINSLNLTESHNSRKKREITEKQIDDNRKFSLFAERKYQTLNCSVNVNCVNIRCPLRGLDSKASLILRSRLWNSTFLEEYSKLNYLDILMRAFIDVTAAAENIRLPNAGTQVRVTVFPSKTVAQYSGVPWWIILVAILAGILMLALLVFILWKCGFFKRSRYDDSVPRYHAVRIRKEEREIKDEKYIDNLEKKQWITKWNENESYS
B2: NUMB (protein, UniProt P49757 1-651)
chain: MNKLRQSFRRKKDVYVPEASRPHQWQTDEEGVRTGKCSFPVKYLGHVEVDESRGMHICEDAVKRLKAERKFFKGFFGKTGKKAVKAVLWVSADGLRVVDEKTKDLIVDQTIEKVSFCAPDRNFDRAFSYICRDGTTRRWICHCFMAVKDTGERLSHAVGCAFAACLERKQKREKECGVTATFDASRTTFTREGSFRVTTATEQAEREEIMKQMQDAKKAETDKIVVGSSVAPGNTAPSPSSPTSPTSDATTSLEMNNPHAIPRRHAPIEQLARQGSFRGFPALSQKMSPFKRQLSLRINELPSTMQRKTDFPIKNAVPEVEGEAESISSLCSQITNAFSTPEDPFSSAPMTKPVTVVAPQSPTFQANGTDSAFHVLAKPAHTALAPVAMPVRETNPWAHAPDAANKEIAATCSGTEWGQSSGAASPGLFQAGHRRTPSEADRWLEEVSKSVRAQQPQASAAPLQPVLQPPPPTAISQPASPFQGNAFLTSQPVPVGVVPALQPAFVPAQSYPVANGMPYPAPNVPVVGITPSQMVANVFGTAGHPQAAHPHQSPSLVRQQTFPHYEASSATTSPFFKPPAQHLNGSAAFNGVDDGRLASADRHTEVPTGTCPVDPFEAQWAALENKSKQRTNPSPTNPFSSDLQKTFEIEL
B3: GOLGA8R (protein, UniProt I6L899 1-631)
chain: MAEETQHNKLAAAKKKLKEYWQKNRPRVPAGVNRNRKTNGSIPETATSGGCQPPGDSATGFHREGPTSSATLKDLESPCQERAVVLDSTSVKISRLKNTIKSLKQQKKQVEHQLEEEKKANNERQKAERVLEVQIQTLIIQKEELNTDLYHMERSLRYFEEESKDLAVRLQHSLQCKGELERALSAVIATEKKKANQLSSCSKAHTEWELEQSLQDQALLKAQLTQLKESFQQLQLERDECAEHIEGERARWHQRMSKMSQEICTLKKEKQDMRWVEQLEWSLSKLKNQTAEPLPPEPPAVPSEVELQHLRKELERVAGELQSQVKNNQHISLLNRRQEERIREQEERLRKQEERLQEQHEKLRQLAKPQSVFEELNNENKSTLQLEQQVKELQEKLGEEHLEVASQQNQQLTAQLSLMALPGEGHGGEHLDSEGEEAPQPMPSVPEDPESREAMSSFMDHLKEKADLSELLKKQELRFIQYWQERCHQKIHHLLSEPGGRAKDAALGGGHHQAGAQGGDEGEAAGAAADGIAAYSNYNNGHRKFLAAAHNSADEPGPGAPAPQELGAADKHGDLREVTLTSSAQGEAREDPLLDKPTAQPIVQDHQEHPGLGSNCCVPLFCWAWLPRRRR
B4: GPR124 (protein, UniProt Q96PE1 34-1338)
chain: APGCPLSIRSCKCSGERPKGLSGGVPGPARRRVVCSGGDLPEPPEPGLLPNGTVTLLLSNNKITGLRNGSFLGLSLLEKLDLRNNIISTVQPGAFLGLGELKRLDLSNNRIGCLTSETFQGLPRLLRLNISGNIFSSLQPGVFDELPALKVVDLGTEFLTCDCHLRWLLPWAQNRSLQLSEHTLCAYPSALHAQALGSLQEAQLCCEGALELHTHHLIPSLRQVVFQGDRLPFQCSASYLGNDTRIRWYHNRAPVEGDEQAGILLAESLIHDCTFITSELTLSHIGVWASGEWECTVSMAQGNASKKVEIVVLETSASYCPAERVANNRGDFRWPRTLAGITAYQSCLQYPFTSVPLGGGAPGTRASRRCDRAGRWEPGDYSHCLYTNDITRVLYTFVLMPINASNALTLAHQLRVYTAEAASFSDMMDVVYVAQMIQKFLGYVDQIKELVEVMVDMASNLMLVDEHLLWLAQREDKACSRIVGALERIGGAALSPHAQHISVNARNVALEAYLIKPHSYVGLTCTAFQRREGGVPGTRPGSPGQNPPPEPEPPADQQLRFRCTTGRPNVSLSSFHIKNSVALASIQLPPSLFSSLPAALAPPVPPDCTLQLLVFRNGRLFHSHSNTSRPGAAGPGKRRGVATPVIFAGTSGCGVGNLTEPVAVSLRHWAEGAEPVAAWWSQEGPGEAGGWTSEGCQLRSSQPNVSALHCQHLGNVAVLMELSAFPREVGGAGAGLHPVVYPCTALLLLCLFATIITYILNHSSIRVSRKGWHMLLNLCFHIAMTSAVFAGGITLTNYQMVCQAVGITLHYSSLSTLLWMGVKARVLHKELTWRAPPPQEGDPALPTPSPMLRFYLIAGGIPLIICGITAAVNIHNYRDHSPYCWLVWRPSLGAFYIPVALILLITWIYFLCAGLRLRGPLAQNPKAGNSRASLEAGEELRGSTRLRGSGPLLSDSGSLLATGSARVGTPGPPEDGDSLYSPGVQLGALVTTHFLYLAMWACGALAVSQRWLPRVVCSCLYGVAASALGLFVFTHHCARRRDVRASWRACCPPASPAAPHAPPRALPAAAEDGSPVFGEGPPSLKSSPSGSSGHPLALGPCKLTNLQLAQSQVCEAGAAAGGEGEPEPAGTRGNLAHRHPNNVHHGRRAHKSRAKGHRAGEACGKNRLKALRGGAAGALELLSSESGSLHNSPTDSYLGSSRNSPGAGLQLEGEPMLTPSEGSDTSAAPLSEAGRAGQRRSASRDSLKGGGALEKESHRRSYPLNAASLNGAPKGGKYDDVTLMGAEVASGGCMKTGLWKSETTV
B5: Formin-binding protein 1 (FNBP1) (protein, UniProt Q96RU3 1-617)
chain: MSWGTELWDQFDNLEKHTQWGIDILEKYIKFVKERTEIELSYAKQLRNLSKKYQPKKNSKEEEEYKYTSCKAFISNLNEMNDYAGQHEVISENMASQIIVDLARYVQELKQERKSNFHDGRKAQQHIETCWKQLESSKRRFERDCKEADRAQQYFEKMDADINVTKADVEKARQQAQIRHQMAEDSKADYSSILQKFNHEQHEYYHTHIPNIFQKIQEMEERRIVRMGESMKTYAEVDRQVIPIIGKCLDGIVKAAESIDQKNDSQLVIEAYKSGFEPPGDIEFEDYTQPMKRTVSDNSLSNSRGEGKPDLKFGGKSKGKLWPFIKKNKLMSLLTSPHQPPPPPPASASPSAVPNGPQSPKQQKEPLSHRFNEFMTSKPKIHCFRSLKRGLSLKLGATPEDFSNLPPEQRRKKLQQKVDELNKEIQKEMDQRDAITKMKDVYLKNPQMGDPASLDHKLAEVSQNIEKLRVETQKFEAWLAEVEGRLPARSEQARRQSGLYDSQNPPTVNNCAQDRESPDGSYTEEQSQESEMKVLATDFDDEFDDEEPLPAIGTCKALYTFEGQNEGTISVVEGETLYVIEEDKGDGWTRIRRNEDEEGYVPTSYVEVCLDKNAKDS
B6: ADD3 (Adducin gamma) (protein, UniProt Q9UEY8 1-706)
chain: MSSDASQGVITTPPPPSMPHKERYFDRINENDPEYIRERNMSPDLRQDFNMMEQRKRVTQILQSPAFREDLECLIQEQMKKGHNPTGLLALQQIADYIMANSFSGFSSPPLSLGMVTPINDLPGADTSSYVKGEKLTRCKLASLYRLVDLFGWAHLANTYISVRISKEQDHIIIIPRGLSFSEATASNLVKVNIIGEVVDQGSTNLKIDHTGFSPHAAIYSTRPDVKCVIHIHTLATAAVSSMKCGILPISQESLLLGDVAYYDYQGSLEEQEERIQLQKVLGPSCKVLVLRNHGVVALGETLEEAFHYIFNVQLACEIQVQALAGAGGVDNLHVLDFQKYKAFTYTVAASGGGGVNMGSHQKWKVGEIEFEGLMRTLDNLGYRTGYAYRHPLIREKPRHKSDVEIPATVTAFSFEDDTVPLSPLKYMAQRQQREKTRWLNSPNTYMKVNVPEESRNGETSPRTKITWMKAEDSSKVSGGTPIKIEDPNQFVPLNTNPNEVLEKRNKIREQNRYDLKTAGPQSQLLAGIVVDKPPSTMQFEDDDHGPPAPPNPFSHLTEGELEEYKRTIERKQQGLEDAEQELLSDDASSVSQIQSQTQSPQNVPEKLEENHELFSKSFISMEVPVMVVNGKDDMHDVEDELAKRVSRLSTSTTIENIEITIKSPEKIEEVLSPEGSPSKSPSKKKKKFRTPSFLKKNKKKEKVEA

Each molecule was assayed against T1, myc-BirA*-MYO1F tail (aa 692-1098) (human) (assay: proximity labelling).

binding, binds:
B1
B2
B3
B4
B5
B6

Molecular target: T1, myc-BirA*-MYO1F tail (aa 692-1098) (human)
Test: proximity labelling
Remark: another data set of the same source

binding, binds:
FYN-binding protein (FYB) (from UniProt O15117 1-783)
Wiskott-Aldrich Syndrome protein (WASP) (from UniProt P42768 1-502)
utrophin (UTRN) (from UniProt P46939 1-3433)
